Source: PubChem BioAssay AID587 (National Center for Advancing Translational Sciences (NCATS), 2007)
Screen size: about 59,000 compounds; about 35 (0.06%) were called active. This list was built around the results that the source calls inconclusive (neither active nor inactive); the mix of calls is not that of the screen. Cut-off read from the data, not from the text of the source: active = max dye-equivalent concentration above about 10 nM; inconclusive = between about 1.1 nM and that limit; inactive = weaker than that.

assay: qHTS Assay for Spectroscopic Profiling in Texas Red Spectral Region; conditions: Compound fluorescence, Texas Red channel, 547/618 nm; active compounds read high
In short: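 Spectral interference profiling: each compound concentration's relative fluorescence, read with a 547 nm excitation and 618 nm emission filter pair, was normalized to a per-plate Texas Red standard curve.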

Row | Structure (SMILES) | max dye-equivalent concentration
1 | C[C@H](NCCc1ccc(O)cc1)[C@@H](O)c1ccc(O)cc1 | inconclusive: 1.2 nM
2 | CC(C)(C)CC(=O)Nc1nnc(-c2cccs2)s1 | inconclusive: 1.3 nM
3 | CCOC(=O)C1(Cc2ccc(O)cc2)NC(c2ccccc2F)C2C(=O)N(C)C(=O)C21 (configuration not stated) | inconclusive: 1.1 nM
4 | CC(=O)OCP(C)(=O)COC(C)=O | inconclusive: 1.2 nM
5 | O=C1CSC(=NC2CCCCC2)N1 | inconclusive: 1.4 nM
6 | Cc1cc(C(=O)N2CCc3ccccc32)c2cc(F)ccc2n1 | inconclusive: 1.3 nM
7 | CCN(CC)c1nc2cc(OC)ccc2cc1C#N | inconclusive: 1.9 nM
8 | Cc1noc(/C=C/c2ccco2)c1S(=O)(=O)N1CCC(C(=O)N(C)Cc2ccccc2)CC1 | inconclusive: 1.4 nM
9 | COc1ccccc1CN1CCCC2(CCN(C(=O)c3cccn3C)CC2)C1 | inactive
10 | CCn1c(COc2ccccc2C)nnc1SCC(=O)N1CCCCC1 | inconclusive: 1.1 nM
11 | CCN1C(=O)/C(=C2\C=Cc3ccccc3N2CC)OC1=S | inconclusive: 4.5 nM
12 | C=CCn1c(COc2ccccc2)nnc1SCc1ccc(C#N)cc1 | inconclusive: 1.2 nM
13 | CC(=O)c1c(C(C)=O)c(C)n(CCCCn2c(C)c(C(C)=O)c(C(C)=O)c2C)c1C | inconclusive: 2.3 nM
14 | O=S(=O)(NC1CCCCC1)c1ccc(S(=O)(=O)N2CCN3CCCC3C2)cc1 (configuration not stated) | inconclusive: 1.5 nM
15 | CC[C@H](C)[C@@H]1O[C@]2(CC[C@@H]1C)C[C@H]1C[C@H](CC=C(C)[C@@H](O[C@H]3C[C@H](OC)[C@H](O[C@H]4C[C@H](OC)[C@H](O)[C@H](C)O4)[C@H](C)O3)[C@@H](C)C=CC=C3CO[C@@H]4[C@@H](O)C(C)=C[C@H](C(=O)O1)[C@@]34O)O2 | inactive
16 | CN(C)CCNC(=O)Cn1nc(-c2ccc(Cl)cc2)ccc1=O | inconclusive: 1.8 nM
17 | CN(C)CCCO[C@H]1[C@H]([C@H](O)CO)O[C@H]2OC(C)(C)O[C@@H]21 | inactive
18 | Cc1c(CNC(=O)c2cnn3c2NC(c2ccc(Br)cc2)CC3C(F)(F)F)cnn1C (configuration not stated) | inconclusive: 1.1 nM
19 | Cc1ccccc1OCC(=O)Nc1ccc2c(c1)COC2=O | inconclusive: 1.2 nM
20 | COc1ccc2[nH]cc(CCNc3cc(-c4cccc(C#N)c4)ncn3)c2c1 | inconclusive: 1.5 nM
21 | CCOc1ccc2[nH]c(=O)c(CN(CC3COCCO3)C(=O)c3ccco3)cc2c1 (configuration not stated) | inconclusive: 1.2 nM
22 | Nc1nc(CN2CCN(c3ccccc3F)CC2)nc(Nc2ccccc2)n1 | inconclusive: 2.1 nM
23 | Cc1ccc(S(=O)(=O)N(C)CCCC(=O)n2nc(C)cc2C)cc1 | inconclusive: 1.1 nM
24 | COCc1cc(C)nc(NC2CCCCC2)c1C#N | inconclusive: 1.6 nM
25 | Cc1ccc(C(=O)Nc2nncs2)cc1S(=O)(=O)N1CCOCC1 | inconclusive: 1.6 nM
26 | CN(C)c1ncc2nc(-c3ccc(Cl)cc3)c(=O)n(C[C@H]3CCCO3)c2n1 | inactive

A second format for ten compounds above.

| Row | Structure (SMILES) | max dye-equivalent concentration |
| --- | --- | --- |
| 15 | CC[C@H](C)[C@@H]1O[C@]2(CC[C@@H]1C)C[C@H]1C[C@H](CC=C(C)[C@@H](O[C@H]3C[C@H](OC)[C@H](O[C@H]4C[C@H](OC)[C@H](O)[C@H](C)O4)[C@H](C)O3)[C@@H](C)C=CC=C3CO[C@@H]4[C@@H](O)C(C)=C[C@H](C(=O)O1)[C@@]34O)O2 | inactive |
| 16 | CN(C)CCNC(=O)Cn1nc(-c2ccc(Cl)cc2)ccc1=O | inconclusive: 1.8 nM |
| 17 | CN(C)CCCO[C@H]1[C@H]([C@H](O)CO)O[C@H]2OC(C)(C)O[C@@H]21 | inactive |
| 18 | Cc1c(CNC(=O)c2cnn3c2NC(c2ccc(Br)cc2)CC3C(F)(F)F)cnn1C (configuration not stated) | inconclusive: 1.1 nM |
| 19 | Cc1ccccc1OCC(=O)Nc1ccc2c(c1)COC2=O | inconclusive: 1.2 nM |
| 20 | COc1ccc2[nH]cc(CCNc3cc(-c4cccc(C#N)c4)ncn3)c2c1 | inconclusive: 1.5 nM |
| 21 | CCOc1ccc2[nH]c(=O)c(CN(CC3COCCO3)C(=O)c3ccco3)cc2c1 (configuration not stated) | inconclusive: 1.2 nM |
| 22 | Nc1nc(CN2CCN(c3ccccc3F)CC2)nc(Nc2ccccc2)n1 | inconclusive: 2.1 nM |
| 23 | Cc1ccc(S(=O)(=O)N(C)CCCC(=O)n2nc(C)cc2C)cc1 | inconclusive: 1.1 nM |
| 24 | COCc1cc(C)nc(NC2CCCCC2)c1C#N | inconclusive: 1.6 nM |

(list continues)

Row | Structure (SMILES) | max dye-equivalent concentration
27 | OC(CN1CCCCC1)Cn1c(C(F)(F)F)nc2ccccc21 (configuration not stated) | inconclusive: 1.2 nM
28 | O=C1c2ccccc2C(=O)N1Cc1nc(-c2ccncc2)no1 | inconclusive: 1.1 nM
29 | COc1ccccc1CN1C(=O)CN(C2CCCC2)C(=O)C1c1ccc(F)cc1 (configuration not stated) | inconclusive: 1.6 nM
30 | COc1ccc(-c2noc(CCC(=O)Nc3cccc(C)c3)n2)cc1 | inconclusive: 1.1 nM
31 | COc1ccc(Oc2ncc3nc(-c4cn(C)c5ccccc45)c(=O)n(CCC#N)c3n2)cc1 | inactive
32 | CCN1CCN(S(=O)(=O)c2ccc(Br)s2)CC1 | inconclusive: 1.1 nM
33 | O=C(NCc1ccc2[nH]c3c(c2c1)CCCC3)N1CCOCC1 | inactive
34 | Cc1ccccc1OCCC(=O)Nc1c(C)n(C)n(-c2ccccc2)c1=O | inconclusive: 1.9 nM
35 | Cc1cc(C(=O)COc2ccc3ccc(=O)oc3c2)c(C)n1Cc1cccs1 | inconclusive: 1.3 nM
36 | CS(=O)(=O)N(CC(=O)O)Cc1ccccc1 | inactive
37 | CCN1C(=O)c2cccc3c(S(=O)(=O)Nc4ncccc4C)ccc1c23 | inactive
38 | Cc1nn(-c2ccccc2)c(CC(C)(C)C(=O)O)c1C(=O)O | inactive
39 | COCCC(=O)NC12CC3CC(CC(C3)C1)C2 | inconclusive: 1.6 nM
40 | COc1ccc(NC(=O)N2CCn3c2nc2ccccc23)cc1 | inconclusive: 1.2 nM
41 | CCN(CC)S(=O)(=O)c1ccc(NC(=O)Cn2c(=O)sc3ccccc32)cc1 | inconclusive: 1.3 nM
42 | Cn1c(=O)c2[nH]c(COCc3nc4c([nH]3)c(=O)n(C)c(=O)n4C)nc2n(C)c1=O | inactive
43 | CCNc1ncc2nc(CCc3ccccc3)c(=O)n(Cc3ccc(F)cc3)c2n1 | inactive
44 | O=C(CCC(=O)N1CCc2ccccc2C1)N1CCN(S(=O)(=O)c2ccccc2)CC1 | inconclusive: 1.7 nM
45 | C[C@H](O)[C@H](O)[C@@H](O)c1cnc2nc(N)[nH]c(=O)c2n1 | inactive
46 | Cn1c(SCC(=O)N2CCCC2)nc2ccccc2c1=O | inconclusive: 1.4 nM
47 | Cc1ccc(CNC(=O)Nc2ccccc2)cc1 | inconclusive: 1.5 nM
48 | COC(=O)C1=C(N)N(c2ccc(F)cc2)C2=C(C(=O)CCC2)C1c1ccc2c(c1)OCO2 (configuration not stated) | inconclusive: 1.4 nM
49 | CN(Cc1cccs1)C(=O)CCc1ccc(S(=O)(=O)N2CCOCC2)cc1 | inconclusive: 1.1 nM
50 | CCCC(c1nnnn1C(C)(C)CC)N(Cc1ccco1)Cc1cc2ccc(OC)cc2[nH]c1=O (configuration not stated) | inconclusive: 2.1 nM
51 | O=C(COc1ccc(-c2nnco2)cc1)N1CCN(S(=O)(=O)c2ccccc2)CC1 | inconclusive: 1.5 nM
52 | CC(=O)O[C@H]1C(=O)[C@]2(C)[C@H]([C@H](OC(=O)c3ccccc3)[C@@]3(O)C[C@H](OC(=O)[C@@H](O)[C@@H](NC(=O)c4ccccc4)c4ccccc4)C(C)=C1C3(C)C)[C@]1(OC(C)=O)CO[C@@H]1C[C@@H]2O | inactive
